Assay results published in paper PMC6561548.
These are yes or no findings as the source states them, for the method shown. Binding seen in cells or lysates may run through a third protein. Binding calls can cover weak binding; strength is not graded here.

Sequences of proteins named here, by UniProt entry; tags and fusion partners are left off. A change or cut given only in a name is not applied to a line headed by its entry. Residues count along the entry.
UniProt P01833, 19-638, stated change not applied: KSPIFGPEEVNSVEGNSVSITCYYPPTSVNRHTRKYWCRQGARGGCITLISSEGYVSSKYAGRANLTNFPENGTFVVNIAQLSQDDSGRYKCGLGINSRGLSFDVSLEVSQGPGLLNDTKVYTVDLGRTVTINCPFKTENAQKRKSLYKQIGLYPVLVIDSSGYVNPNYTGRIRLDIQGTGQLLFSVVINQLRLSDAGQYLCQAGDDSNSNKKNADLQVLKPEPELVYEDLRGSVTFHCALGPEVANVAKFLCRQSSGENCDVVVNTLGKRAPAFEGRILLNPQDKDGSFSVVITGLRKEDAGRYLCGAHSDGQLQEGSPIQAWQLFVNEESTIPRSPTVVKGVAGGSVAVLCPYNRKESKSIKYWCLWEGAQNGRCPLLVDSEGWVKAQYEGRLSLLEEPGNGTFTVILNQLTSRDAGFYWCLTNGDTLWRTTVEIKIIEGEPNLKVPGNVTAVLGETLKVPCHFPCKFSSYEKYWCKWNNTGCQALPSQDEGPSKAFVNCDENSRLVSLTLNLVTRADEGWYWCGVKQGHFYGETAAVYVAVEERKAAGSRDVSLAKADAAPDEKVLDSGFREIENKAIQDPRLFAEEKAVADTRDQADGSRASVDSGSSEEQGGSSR

Molecular target: Recombinant Human Polymeric Immunoglobulin Receptor/PIgR (C-Fc) CI09 protein (human) (UniProt P01833)
Assay: co-IP; only the target purified

“Slp encoded on plasmid pUC18::slp in the complemented strain O157Δslp-p:slp (from UniProt P37194)” was tested, and the binding was “binds”.
